Results on three molecules are retold here after paper PMC12561191.

The chains behind the UniProt entries cited, without tags or fusion partners.
UniProt Q07813: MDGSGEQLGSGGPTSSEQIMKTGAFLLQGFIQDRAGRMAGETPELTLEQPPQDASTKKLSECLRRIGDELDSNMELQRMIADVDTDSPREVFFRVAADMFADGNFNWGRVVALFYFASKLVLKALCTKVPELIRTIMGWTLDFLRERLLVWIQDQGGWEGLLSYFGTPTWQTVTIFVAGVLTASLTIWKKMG

These are yes or no findings as the source states them, for the method shown. For part of these data: Binding seen in cells or lysates may run through a third protein. Some entries that bind do so weakly or less than the wild type.

Test [1] has as its target Bcl2‐associated X protein (BAX), endogenous in AC16 cells (human (endogenous in AC16)), Q07812. The test can be described thus: co-IP; endogenous proteins in lysates (IP lysis buffer: 50 mM HEPES pH 7.4, 150 mM NaCl, 0.1% Triton X-100, 2 mM EGTA) of AC16 cells and primary WT cardiocytes, Ang II (0.2 µM) for 48 h; Anti-MANF (Abcam ab67271) or Anti-BAX (Abcam ab182733) overnight at 4 °C, protein A/G plus-agarose; immunoblot. The following applies: remark: other sources report otherwise. Background: In western blotting, separated proteins are transferred to a membrane and probed.

Test [2] concerns the target Bcl2‐associated X protein (BAX), endogenous in primary WT mouse cardiocytes (mouse (endogenous in primary cardiocytes)) (UniProt Q07813). The test is described as above.
Test [3] has as its target BAX, the ligand protein coupled on the SPR chip, Q07812. The test can be described thus: SPR; Biacore X100; BAX as ligand (50 µg/mL in 10 mM sodium acetate) coupled on CM5 chip; MANF or Mut C-MANF flowed; running buffer 1x PBS-P+ (5% DMSO, pH 7.4), 30 µL/min, 80 s; regeneration 10 mM glycine hydrochloride pH 2.0; both purified. As to conditions: remark: other sources report otherwise. In general terms: Surface plasmon resonance follows binding to a sensor surface in real time, without labels.

B1: Mesencephalic astrocyte‐derived neurotrophic factor (MANF), endogenous in AC16 cells, P55145 25-182 (protein)
chain: LRPGDCEVCISYLGRFYQDLKDRDVTFSPATIENELIKFCREARGKENRLCYYIGATDDAATKIINEVSKPLAHHIPVEKICEKLKKKDSQICELKYDKQIDLSTVDLKKLRVKELKKILDDWGETCKGCAEKSDYIRKINELMPKYAPKAASARTDL
Regarding B1, in test [1], the binding entry is given as “binds”.

B2: Mesencephalic astrocyte‐derived neurotrophic factor (MANF), endogenous in primary WT mouse cardiocytes (protein, UniProt Q9CXI5 22-179)
chain: LRPGDCEVCISYLGRFYQDLKDRDVTFSPATIEEELIKFCREARGKENRLCYYIGATDDAATKIINEVSKPLAHHIPVEKICEKLKKKDSQICELKYDKQIDLSTVDLKKLRVKELKKILDDWGEMCKGCAEKSDYIRKINELMPKYAPKAASARTDL
For B2, the binding entry in test [2] was “binds”.

B3: recombinant human MANF (rhMANF) protein, P55145 25-182 (protein)
chain: LRPGDCEVCISYLGRFYQDLKDRDVTFSPATIENELIKFCREARGKENRLCYYIGATDDAATKIINEVSKPLAHHIPVEKICEKLKKKDSQICELKYDKQIDLSTVDLKKLRVKELKKILDDWGETCKGCAEKSDYIRKINELMPKYAPKAASARTDL
On to B3, for which the binding result in test [3] is given as “binds”.
